SMILES strings stand for the structures. “And” between values parts separate entries of the source, which are not always exact repeats. Equal entries are not always repeated. The list shows a part of the results. Shown are side measurements of this screen, not its main read-out; they come without a call. For some of these results: Compounds called inactive in the main read-out are mostly missing here.

One experiment is described as follows: PubChem AID 1586. The note with it: yeast two-hybrid polyglutamine protein interaction, reporter readout; measured here: averaged growth delta OD.
Take `N#C/C(=C\c1ccc(O)cc1)C(=O)O`: the signal change (36 h minus 0 h) stood at 0.183.
On the same count and under the same terms, the result for `COC(=O)C1C(OC(=O)c2ccccc2)CC2CCC1N2C` (stereo unspecified) reads 0.322; that for `OC1CCCCC1N1CCC(c2ccccc2)CC1` (stereo unspecified), 0.204; that for `CN1C[C@H](CO)C=C2c3cccc4[nH]cc(c34)C[C@H]21`, 0.165.
On the same count and under the same terms, the same measure for `CC[N+]1(C)CCCC(OC(=O)C(O)(c2ccccc2)c2ccccc2)C1` (stereo unspecified): 0.0678; for `CCCCCCCCCCCCCCCC[n+]1ccccc1`: -0.0068; for `CC(=O)OCC1=C(C(=O)O)N2C(=O)[C@@H](NC(=O)CCCC(N)C(=O)O)C2SC1` (stereo partly specified): 0.0782.
In turn, `CCCCCCCCCCCCCCCC[N+](C)(C)C` registered a signal change (36 h minus 0 h) of -0.00805.
`CC(CCc1ccccc1)NC(C)C(O)c1ccc(O)cc1` (stereo unspecified) yielded a signal change (36 h minus 0 h) of 0.044.
Regarding `CNC(C)C(O)c1ccccc1` (stereo unspecified), the signal change (36 h minus 0 h) is 0.126 and 0.0939.
Turning to `CN1CC(CNC(=O)OCc2ccccc2)CC2c3cccc4c3c(cn4C)CC21` (stereo unspecified), the signal change (36 h minus 0 h) was 0.124.
For the compound `CNC(C)(C)Cc1ccccc1`, the signal change (36 h minus 0 h) was 0.133.
Same read-out and setting: the same measure for `CN[C@@H](C)[C@@H](O)c1ccccc1`: 0.114.
The same measure, in the same setting: the result for `C[C@@H]([C@H](O)c1ccccc1)N(C)C` reads 0.134; that for `C/C=C(\C)C(=O)O[C@H]1C[C@@H](OC(C)=O)[C@@]2(C(=O)OC)CO[C@@H]3C2[C@]12CO[C@](O)(C(=O)OC)[C@H]2[C@](C)(C12O[C@@]1(C)[C@H]1C[C@@H]2OC2OC=C[C@@]21O)[C@@H]3O` (stereo partly specified), 0.0945; that for `Cc1cccc(C)c1NC1=NCCCS1`, 0.134.
Still for that read-out and setting: the result for `C[n+]1cc2c3c(ccc2c2ccc4cc5c(cc4c21)OCO5)OCO3` reads 0.0891; that for `O=c1ccc2cc(O[C@H]3O[C@H](CO)[C@@H](O)[C@H](O)[C@H]3O)c(O)cc2o1`, 0.0506; that for `CC[C@@]1(O)C(=O)OCc2c1cc1n(c2=O)Cc2cc3ccccc3nc2-1`, 0.0958.
Take `CN1CC[C@]23c4c5ccc(O)c4O[C@H]2[C@H](O)C=CC3[C@H]1C5` (stereo partly specified): the signal change (36 h minus 0 h) is 0.311.
As for `NCCC(O)C(=O)N[C@@H]1C[C@H](N)[C@@H](O[C@H]2O[C@H](CN)[C@@H](O)[C@H](O)[C@H]2N)[C@H](OC2O[C@H](CO)[C@H](O)[C@H]2O)[C@H]1O` (stereo partly specified), the signal change (36 h minus 0 h) stood at 0.123.
Still for that read-out and setting: the same measure for `C[C@@H]1CC[C@H]2[C@@H](C)C(=O)O[C@@H]3OC4(C)CC[C@@H]1[C@]32OO4`: 0.0722; for `COc1ccc(C[C@H]2NC[C@H](O)[C@H]2OC(C)=O)cc1`: 0.271; for `C[C@H](N)[C@H](O)c1ccc(O)c(O)c1`: 0.0836.
In turn, `CC(=O)O[C@H]1C[C@H](O[C@H]2[C@@H](O)C[C@H](O[C@H]3[C@@H](O)C[C@H](O[C@H]4CC[C@@]5(C)C(CCC6C5C[C@@H](O)[C@]5(C)[C@@H](C7=CC(=O)OC7)CC[C@]65O)C4)O[C@@H]3C)O[C@@H]2C)O[C@H](C)[C@H]1O[C@@H]1O[C@H](CO)[C@@H](O)[C@H](O)[C@H]1O` (stereo partly specified) yielded a signal change (36 h minus 0 h) of 0.0715.
On the same count and under the same terms, the same measure for `CN=C1CN(O)C(c2ccccc2)=c2cc(Cl)ccc2=N1`: 0.337; for `Cc1cc2c(C(C)C)c(O)c(O)c(C=O)c2c(O)c1-c1c(C)cc2c(C(C)C)c(O)c(O)c(C=O)c2c1O`: 0.165; for `C[C@]12CCC(=O)C=C1CCC1C2CC[C@@]2(C)C1CC[C@@H]2O` (stereo partly specified): 0.0566.
The same measure, in the same setting: the result for `C[N+](C)(C)CC(=O)[O-]` reads 0.431.
The compound `CC(C)(C)NCC(O)c1cc(Cl)c(N)c(Cl)c1` (stereo unspecified) yielded a signal change (36 h minus 0 h) of 0.0924.
Still for that read-out and setting: the same measure for `C=C[C@H]1CN2CC[C@H]1C[C@@H]2[C@@H](OC(=O)OCC)c1ccnc2ccc(OC)cc12`: -0.0209; for `Clc1ccc(C(OCCN2CCCCC2)c2ccccc2)cc1` (stereo unspecified): 0.107; for `C[C@H]1C(=O)O[C@@H]2CCN3CC=C(COC(=O)[C@](C)(O)[C@]1(C)O)[C@H]23`: 0.16.
As to `COc1ccc2c(c1)[C@]13CCCC[C@H]1[C@H](C2)N(C)CC3`, the signal change (36 h minus 0 h) was found to be 0.179.
As for `CCC(=O)O[C@H]1CCC2C3CCC4=CC(=O)CC[C@]4(C)C3CC[C@@]21C` (stereo partly specified), the signal change (36 h minus 0 h) was 0.0906.
On the same count and under the same terms, the result for `CC(C)CC(NC(=O)C(Cc1ccccc1)NC(=O)CNC(=O)CNC(=O)C(N)Cc1ccc(O)cc1)C(=O)O` (stereo unspecified) reads 0.273.

A short description of the next experiment: enhancers of SMN2 over SMN1 splicing, cell-based, SMN2/SMN1 luciferase reporters (AID 1598). The note with it: SMN2 vs SMN1 luciferase splicing reporter cells, at 10 µM; SMN1 luciferase ratio: measured here: SMN1 luciferase reporter average; SMN2 luciferase ratio: measured here: SMN2 luciferase reporter average, stronger effect = higher value.
In the case of `N#C/C(=C\c1ccc(O)cc1)C(=O)O`, the SMN2 luciferase ratio is 1.01 and the SMN1 luciferase ratio amounted to 0.98.
Consider `COC(=O)C1C(OC(=O)c2ccccc2)CC2CCC1N2C` (stereo unspecified), for which the SMN2 luciferase ratio came out at 0.83 and the SMN1 luciferase ratio turned out to be 0.89.
The like results for `OC1CCCCC1N1CCC(c2ccccc2)CC1` (stereo unspecified) were, in that order, 1 and 0.87.
Turning to `CN1C[C@H](CO)C=C2c3cccc4[nH]cc(c34)C[C@H]21`, the SMN2 luciferase ratio was determined as 0.85 and the SMN1 luciferase ratio stood at 0.94.
The like results for `CC[N+]1(C)CCCC(OC(=O)C(O)(c2ccccc2)c2ccccc2)C1` (stereo unspecified) were, in that order, 0.88 and 0.89.
Regarding `CCCCCCCCCCCCCCCC[n+]1ccccc1`, the SMN1 luciferase ratio stood at 0.23 and the SMN2 luciferase ratio was 0.33.
Regarding `CC(=O)OCC1=C(C(=O)O)N2C(=O)[C@@H](NC(=O)CCCC(N)C(=O)O)C2SC1` (stereo partly specified), the SMN1 luciferase ratio was found to be 0.96 and the SMN2 luciferase ratio was 0.94.
For `CCCCCCCCCCCCCCCC[N+](C)(C)C`, the SMN2 luciferase ratio was 0.43 and the SMN1 luciferase ratio came to 0.35.
`CC(CCc1ccccc1)NC(C)C(O)c1ccc(O)cc1` (stereo unspecified): the SMN1 luciferase ratio worked out at 0.9 and the SMN2 luciferase ratio stood at 0.83.
As to `CNC(C)C(O)c1ccccc1` (stereo unspecified), the SMN2 luciferase ratio is 1.01 and 1.02; the SMN1 luciferase ratio is 0.98 and 1.03.
For the compound `CN1CC(CNC(=O)OCc2ccccc2)CC2c3cccc4c3c(cn4C)CC21` (stereo unspecified), the SMN1 luciferase ratio stood at 0.81 and the SMN2 luciferase ratio stood at 0.88.
The like results for `CNC(C)(C)Cc1ccccc1` were, in that order, 0.86 and 0.87.
On to `CN[C@@H](C)[C@@H](O)c1ccccc1`, for which the SMN1 luciferase ratio came out at 0.87 and the SMN2 luciferase ratio turned out to be 0.97.
With `C[C@@H]([C@H](O)c1ccccc1)N(C)C`, the SMN2 luciferase ratio is 0.87 and the SMN1 luciferase ratio was 0.92.
The like results for `C/C=C(\C)C(=O)O[C@H]1C[C@@H](OC(C)=O)[C@@]2(C(=O)OC)CO[C@@H]3C2[C@]12CO[C@](O)(C(=O)OC)[C@H]2[C@](C)(C12O[C@@]1(C)[C@H]1C[C@@H]2OC2OC=C[C@@]21O)[C@@H]3O` (stereo partly specified) were, in that order, 0.89 and 0.92.
Consider `Cc1cccc(C)c1NC1=NCCCS1`, for which the SMN2 luciferase ratio came out at 0.79 and the SMN1 luciferase ratio is 0.91.
The like results for `C[n+]1cc2c3c(ccc2c2ccc4cc5c(cc4c21)OCO5)OCO3` were, in that order, 0.9 and 0.98.
The like results for `O=c1ccc2cc(O[C@H]3O[C@H](CO)[C@@H](O)[C@H](O)[C@H]3O)c(O)cc2o1` were, in that order, 0.97 and 1.15.
The like results for `CN1CC[C@]23c4c5ccc(O)c4O[C@H]2[C@H](O)C=CC3[C@H]1C5` (stereo partly specified) were, in that order, 0.93 and 0.8.
Regarding `NCCC(O)C(=O)N[C@@H]1C[C@H](N)[C@@H](O[C@H]2O[C@H](CN)[C@@H](O)[C@H](O)[C@H]2N)[C@H](OC2O[C@H](CO)[C@H](O)[C@H]2O)[C@H]1O` (stereo partly specified), the SMN2 luciferase ratio turned out to be 0.94 and the SMN1 luciferase ratio worked out at 0.84.
Take `C[C@@H]1CC[C@H]2[C@@H](C)C(=O)O[C@@H]3OC4(C)CC[C@@H]1[C@]32OO4`: the SMN2 luciferase ratio came to 0.94 and the SMN1 luciferase ratio was determined as 0.96.
The like results for `COc1ccc(C[C@H]2NC[C@H](O)[C@H]2OC(C)=O)cc1` were, in that order, 0.09 and 0.06.
Consider `C[C@H](N)[C@H](O)c1ccc(O)c(O)c1`, for which the SMN2 luciferase ratio was determined as 0.93 and the SMN1 luciferase ratio was determined as 0.94.
In the case of `CC(=O)O[C@H]1C[C@H](O[C@H]2[C@@H](O)C[C@H](O[C@H]3[C@@H](O)C[C@H](O[C@H]4CC[C@@]5(C)C(CCC6C5C[C@@H](O)[C@]5(C)[C@@H](C7=CC(=O)OC7)CC[C@]65O)C4)O[C@@H]3C)O[C@@H]2C)O[C@H](C)[C@H]1O[C@@H]1O[C@H](CO)[C@@H](O)[C@H](O)[C@H]1O` (stereo partly specified), the SMN2 luciferase ratio amounted to 0.07 and the SMN1 luciferase ratio amounted to 0.04.
For `CN=C1CN(O)C(c2ccccc2)=c2cc(Cl)ccc2=N1`, the SMN2 luciferase ratio was found to be 0.91 and the SMN1 luciferase ratio was 0.81.
The like results for `Cc1cc2c(C(C)C)c(O)c(O)c(C=O)c2c(O)c1-c1c(C)cc2c(C(C)C)c(O)c(O)c(C=O)c2c1O` were, in that order, 0.88 and 0.85.
As for `C[C@]12CCC(=O)C=C1CCC1C2CC[C@@]2(C)C1CC[C@@H]2O` (stereo partly specified), the SMN2 luciferase ratio was determined as 0.99 and the SMN1 luciferase ratio came to 0.85.
The like results for `C[N+](C)(C)CC(=O)[O-]` were, in that order, 0.84 and 0.98.
The like results for `CC(C)(C)NCC(O)c1cc(Cl)c(N)c(Cl)c1` (stereo unspecified) were, in that order, 0.84 and 0.9.
The like results for `C=C[C@H]1CN2CC[C@H]1C[C@@H]2[C@@H](OC(=O)OCC)c1ccnc2ccc(OC)cc12` were, in that order, 0.9 and 0.88.
Turning to `Clc1ccc(C(OCCN2CCCCC2)c2ccccc2)cc1` (stereo unspecified), the SMN2 luciferase ratio came to 0.95 and the SMN1 luciferase ratio was 0.94.
The like results for `C[C@H]1C(=O)O[C@@H]2CCN3CC=C(COC(=O)[C@](C)(O)[C@]1(C)O)[C@H]23` were, in that order, 0.93 and 0.97.
As to `COc1ccc2c(c1)[C@]13CCCC[C@H]1[C@H](C2)N(C)CC3`, the SMN2 luciferase ratio worked out at 0.93 and the SMN1 luciferase ratio was determined as 0.82.
Take `CCC(=O)O[C@H]1CCC2C3CCC4=CC(=O)CC[C@]4(C)C3CC[C@@]21C` (stereo partly specified): the SMN2 luciferase ratio came to 0.94 and the SMN1 luciferase ratio came out at 0.96.
The like results for `CC(C)CC(NC(=O)C(Cc1ccccc1)NC(=O)CNC(=O)CNC(=O)C(N)Cc1ccc(O)cc1)C(=O)O` (stereo unspecified) were, in that order, 0.98 and 0.91.

The record behind these values is PubChem BioAssay.
